Data: the supplement of paper PMC12067093, “Discovery and optimisation of a covalent ligand for TRIM25 and its application to targeted protein ubiquitination” (Chemical Science, 2025)
This is one part of the list.

Amino acid sequences for entries named in this document (tags omitted). A change or cut given only in a name is not applied to a line headed by its entry.
UniProt O75717: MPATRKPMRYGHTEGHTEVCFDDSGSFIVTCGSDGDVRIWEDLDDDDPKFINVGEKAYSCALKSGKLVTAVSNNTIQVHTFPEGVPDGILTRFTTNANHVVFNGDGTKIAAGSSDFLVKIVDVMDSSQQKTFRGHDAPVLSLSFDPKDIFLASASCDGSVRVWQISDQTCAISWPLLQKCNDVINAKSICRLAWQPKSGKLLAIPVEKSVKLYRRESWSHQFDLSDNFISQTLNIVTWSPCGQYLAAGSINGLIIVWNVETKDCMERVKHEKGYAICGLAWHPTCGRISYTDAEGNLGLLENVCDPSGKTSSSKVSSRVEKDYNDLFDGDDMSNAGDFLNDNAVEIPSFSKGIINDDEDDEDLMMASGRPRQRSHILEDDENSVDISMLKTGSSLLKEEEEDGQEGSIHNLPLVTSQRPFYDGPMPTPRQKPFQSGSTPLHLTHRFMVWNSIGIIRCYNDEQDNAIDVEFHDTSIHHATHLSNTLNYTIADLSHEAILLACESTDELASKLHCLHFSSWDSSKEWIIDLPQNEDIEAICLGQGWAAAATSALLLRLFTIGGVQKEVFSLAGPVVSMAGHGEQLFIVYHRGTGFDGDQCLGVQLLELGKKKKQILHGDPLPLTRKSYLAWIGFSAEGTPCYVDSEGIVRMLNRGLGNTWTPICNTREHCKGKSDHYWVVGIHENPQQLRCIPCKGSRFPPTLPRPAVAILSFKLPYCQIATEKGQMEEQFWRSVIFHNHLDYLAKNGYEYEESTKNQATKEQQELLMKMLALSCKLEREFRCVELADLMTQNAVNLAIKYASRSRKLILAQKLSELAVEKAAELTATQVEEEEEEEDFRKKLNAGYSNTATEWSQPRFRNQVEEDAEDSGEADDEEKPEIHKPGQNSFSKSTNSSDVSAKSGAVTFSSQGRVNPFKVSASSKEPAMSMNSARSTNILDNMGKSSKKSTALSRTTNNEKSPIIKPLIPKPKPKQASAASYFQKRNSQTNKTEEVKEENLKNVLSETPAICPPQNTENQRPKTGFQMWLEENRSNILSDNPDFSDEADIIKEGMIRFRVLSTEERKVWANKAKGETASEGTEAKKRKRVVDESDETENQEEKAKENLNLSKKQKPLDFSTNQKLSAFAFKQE
UniProt Q6ZS81: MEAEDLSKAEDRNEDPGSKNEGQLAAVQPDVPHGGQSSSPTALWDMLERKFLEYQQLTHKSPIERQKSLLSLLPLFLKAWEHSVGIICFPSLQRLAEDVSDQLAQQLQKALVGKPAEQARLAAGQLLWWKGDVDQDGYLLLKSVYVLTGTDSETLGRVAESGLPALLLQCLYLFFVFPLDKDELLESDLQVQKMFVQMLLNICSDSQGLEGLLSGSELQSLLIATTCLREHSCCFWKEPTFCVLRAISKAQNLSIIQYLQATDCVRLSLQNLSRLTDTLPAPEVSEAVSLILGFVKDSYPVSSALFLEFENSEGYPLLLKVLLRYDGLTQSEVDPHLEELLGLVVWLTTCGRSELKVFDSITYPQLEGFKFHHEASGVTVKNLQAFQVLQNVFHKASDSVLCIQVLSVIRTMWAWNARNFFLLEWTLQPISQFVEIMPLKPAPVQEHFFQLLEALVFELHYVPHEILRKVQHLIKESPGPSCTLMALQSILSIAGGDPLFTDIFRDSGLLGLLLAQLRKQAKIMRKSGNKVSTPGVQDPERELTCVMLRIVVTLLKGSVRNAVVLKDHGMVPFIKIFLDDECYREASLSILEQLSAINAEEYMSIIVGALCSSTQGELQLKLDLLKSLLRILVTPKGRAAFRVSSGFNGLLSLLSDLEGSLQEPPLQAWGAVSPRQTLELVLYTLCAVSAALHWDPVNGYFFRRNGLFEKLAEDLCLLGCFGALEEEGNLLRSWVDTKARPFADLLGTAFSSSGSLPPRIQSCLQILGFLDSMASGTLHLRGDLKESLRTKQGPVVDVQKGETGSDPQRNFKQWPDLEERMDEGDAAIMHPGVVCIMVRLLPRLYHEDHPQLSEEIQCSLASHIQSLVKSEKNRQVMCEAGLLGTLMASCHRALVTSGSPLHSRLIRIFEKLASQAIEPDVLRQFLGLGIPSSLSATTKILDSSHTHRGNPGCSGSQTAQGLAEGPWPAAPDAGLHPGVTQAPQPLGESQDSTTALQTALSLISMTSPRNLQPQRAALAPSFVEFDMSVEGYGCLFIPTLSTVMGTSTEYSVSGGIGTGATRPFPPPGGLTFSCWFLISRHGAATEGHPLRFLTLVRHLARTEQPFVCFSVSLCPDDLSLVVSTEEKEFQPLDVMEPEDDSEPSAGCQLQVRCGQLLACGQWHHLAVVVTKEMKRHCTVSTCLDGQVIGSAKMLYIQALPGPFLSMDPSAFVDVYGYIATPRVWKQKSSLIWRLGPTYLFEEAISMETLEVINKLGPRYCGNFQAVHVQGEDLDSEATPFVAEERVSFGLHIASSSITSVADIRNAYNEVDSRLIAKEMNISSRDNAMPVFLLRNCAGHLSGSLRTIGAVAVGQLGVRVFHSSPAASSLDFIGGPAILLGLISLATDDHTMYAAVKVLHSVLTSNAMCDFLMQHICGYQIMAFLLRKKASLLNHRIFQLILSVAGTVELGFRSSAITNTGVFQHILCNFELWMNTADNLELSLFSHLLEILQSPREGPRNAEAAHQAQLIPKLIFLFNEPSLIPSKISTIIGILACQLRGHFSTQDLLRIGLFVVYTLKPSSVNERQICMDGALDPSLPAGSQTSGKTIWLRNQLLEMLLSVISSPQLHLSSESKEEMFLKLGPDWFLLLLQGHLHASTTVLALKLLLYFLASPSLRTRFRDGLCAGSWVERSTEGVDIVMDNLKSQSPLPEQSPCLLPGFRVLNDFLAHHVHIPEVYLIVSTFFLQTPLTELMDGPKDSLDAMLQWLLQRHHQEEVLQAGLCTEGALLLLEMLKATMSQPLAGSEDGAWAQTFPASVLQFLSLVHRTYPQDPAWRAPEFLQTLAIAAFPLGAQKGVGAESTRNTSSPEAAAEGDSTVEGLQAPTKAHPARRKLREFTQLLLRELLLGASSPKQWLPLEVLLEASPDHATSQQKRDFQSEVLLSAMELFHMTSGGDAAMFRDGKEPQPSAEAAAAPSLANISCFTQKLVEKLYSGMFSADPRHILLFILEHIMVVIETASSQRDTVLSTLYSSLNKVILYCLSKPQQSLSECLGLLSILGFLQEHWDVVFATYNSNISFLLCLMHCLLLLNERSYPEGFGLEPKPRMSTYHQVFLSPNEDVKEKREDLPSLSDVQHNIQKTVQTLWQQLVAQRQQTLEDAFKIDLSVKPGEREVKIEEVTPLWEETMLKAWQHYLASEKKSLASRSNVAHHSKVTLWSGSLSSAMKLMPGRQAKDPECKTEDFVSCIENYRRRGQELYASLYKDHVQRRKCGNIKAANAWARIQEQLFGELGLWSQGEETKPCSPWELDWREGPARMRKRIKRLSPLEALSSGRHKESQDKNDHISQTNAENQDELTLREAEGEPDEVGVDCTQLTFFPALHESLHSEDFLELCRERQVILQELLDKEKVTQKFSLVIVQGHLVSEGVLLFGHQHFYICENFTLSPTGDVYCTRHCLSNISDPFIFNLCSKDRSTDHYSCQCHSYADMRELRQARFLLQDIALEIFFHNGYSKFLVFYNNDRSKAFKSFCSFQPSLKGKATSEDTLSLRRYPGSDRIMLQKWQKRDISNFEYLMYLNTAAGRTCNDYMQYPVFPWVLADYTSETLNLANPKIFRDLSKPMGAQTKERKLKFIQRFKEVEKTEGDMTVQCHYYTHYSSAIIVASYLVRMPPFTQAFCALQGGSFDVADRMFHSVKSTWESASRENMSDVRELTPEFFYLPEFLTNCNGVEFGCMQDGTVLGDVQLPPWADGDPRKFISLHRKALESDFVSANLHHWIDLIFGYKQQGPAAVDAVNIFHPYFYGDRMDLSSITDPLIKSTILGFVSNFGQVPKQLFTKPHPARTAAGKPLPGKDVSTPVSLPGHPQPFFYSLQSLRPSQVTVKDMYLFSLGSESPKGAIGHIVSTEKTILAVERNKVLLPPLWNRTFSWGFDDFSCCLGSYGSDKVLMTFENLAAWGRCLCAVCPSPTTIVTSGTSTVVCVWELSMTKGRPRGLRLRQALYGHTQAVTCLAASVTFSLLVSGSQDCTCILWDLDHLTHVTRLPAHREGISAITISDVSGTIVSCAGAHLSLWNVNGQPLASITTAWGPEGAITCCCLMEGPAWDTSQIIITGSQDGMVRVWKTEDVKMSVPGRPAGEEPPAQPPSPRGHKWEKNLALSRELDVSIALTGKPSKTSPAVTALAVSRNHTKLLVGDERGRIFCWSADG
UniProt Q9Y6I7: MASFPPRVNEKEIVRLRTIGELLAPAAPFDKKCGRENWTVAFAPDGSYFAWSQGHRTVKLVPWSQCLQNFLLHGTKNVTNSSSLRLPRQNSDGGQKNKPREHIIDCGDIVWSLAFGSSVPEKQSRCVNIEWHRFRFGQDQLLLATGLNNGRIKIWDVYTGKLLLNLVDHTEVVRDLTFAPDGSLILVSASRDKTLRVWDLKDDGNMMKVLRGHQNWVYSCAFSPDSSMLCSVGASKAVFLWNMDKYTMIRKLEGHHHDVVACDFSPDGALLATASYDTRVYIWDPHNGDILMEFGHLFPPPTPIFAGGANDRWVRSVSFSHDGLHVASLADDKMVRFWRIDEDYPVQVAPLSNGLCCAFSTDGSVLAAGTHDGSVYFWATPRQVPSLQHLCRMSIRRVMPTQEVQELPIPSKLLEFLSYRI
UniProt Q12768: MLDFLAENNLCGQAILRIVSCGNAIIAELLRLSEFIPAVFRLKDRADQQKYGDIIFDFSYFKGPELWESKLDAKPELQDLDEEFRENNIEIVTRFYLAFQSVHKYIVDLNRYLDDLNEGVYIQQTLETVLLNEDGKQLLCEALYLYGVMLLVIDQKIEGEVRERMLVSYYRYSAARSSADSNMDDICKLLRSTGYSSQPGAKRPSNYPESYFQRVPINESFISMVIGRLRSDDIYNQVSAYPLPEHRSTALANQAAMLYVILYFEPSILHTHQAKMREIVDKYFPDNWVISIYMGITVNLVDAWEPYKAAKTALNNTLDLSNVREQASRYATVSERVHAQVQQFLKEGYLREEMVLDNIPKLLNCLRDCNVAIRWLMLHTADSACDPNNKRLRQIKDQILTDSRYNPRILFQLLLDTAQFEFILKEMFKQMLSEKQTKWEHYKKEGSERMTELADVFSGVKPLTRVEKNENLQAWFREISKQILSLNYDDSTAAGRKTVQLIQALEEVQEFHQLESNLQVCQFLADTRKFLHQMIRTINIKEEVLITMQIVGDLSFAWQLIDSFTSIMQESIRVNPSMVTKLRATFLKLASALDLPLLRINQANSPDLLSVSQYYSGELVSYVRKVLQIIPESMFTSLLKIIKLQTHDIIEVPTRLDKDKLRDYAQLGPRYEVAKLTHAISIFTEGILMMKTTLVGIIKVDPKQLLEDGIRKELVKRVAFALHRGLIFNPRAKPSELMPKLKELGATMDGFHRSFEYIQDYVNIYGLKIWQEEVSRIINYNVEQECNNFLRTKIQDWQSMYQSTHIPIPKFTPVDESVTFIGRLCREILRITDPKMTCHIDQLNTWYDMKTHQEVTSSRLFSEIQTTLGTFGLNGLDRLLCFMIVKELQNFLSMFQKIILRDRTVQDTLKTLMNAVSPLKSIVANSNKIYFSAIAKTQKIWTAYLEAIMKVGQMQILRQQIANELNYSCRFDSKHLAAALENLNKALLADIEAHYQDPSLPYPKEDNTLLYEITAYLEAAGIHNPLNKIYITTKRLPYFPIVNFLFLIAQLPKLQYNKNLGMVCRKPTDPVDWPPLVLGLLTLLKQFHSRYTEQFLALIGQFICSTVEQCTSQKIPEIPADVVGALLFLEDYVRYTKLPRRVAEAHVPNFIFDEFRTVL
UniProt O75083: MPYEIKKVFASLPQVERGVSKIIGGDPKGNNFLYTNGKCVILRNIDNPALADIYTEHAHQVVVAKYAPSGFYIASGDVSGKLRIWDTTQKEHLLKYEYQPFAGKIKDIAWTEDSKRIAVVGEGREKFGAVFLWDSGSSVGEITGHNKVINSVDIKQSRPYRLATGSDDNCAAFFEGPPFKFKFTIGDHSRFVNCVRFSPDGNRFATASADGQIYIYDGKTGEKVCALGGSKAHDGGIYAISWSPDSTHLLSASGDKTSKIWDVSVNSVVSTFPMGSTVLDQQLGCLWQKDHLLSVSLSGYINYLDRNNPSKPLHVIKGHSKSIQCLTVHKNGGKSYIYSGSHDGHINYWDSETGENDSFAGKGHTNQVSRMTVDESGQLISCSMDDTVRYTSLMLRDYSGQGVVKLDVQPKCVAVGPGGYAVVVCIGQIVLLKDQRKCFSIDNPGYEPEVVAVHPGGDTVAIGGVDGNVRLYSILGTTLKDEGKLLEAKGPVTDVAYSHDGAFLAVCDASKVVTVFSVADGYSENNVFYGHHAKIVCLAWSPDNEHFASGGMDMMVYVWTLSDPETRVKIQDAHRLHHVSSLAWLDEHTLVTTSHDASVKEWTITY

Compound: CC1Cc2ccccc2N1C(=O)C1CCCN(C1)C(=O)CCl (mixture of isomers) [TRIM25 ligand 11 (diastereomer mixture)]
Assay: probe-labelled cysteine peptide fold change vs DMSO (competition) (log2 fold change); higher = less target engagement (more negative = stronger competition)
Settings: THP-1, incubation time: 4 h
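Also: competitive chemoproteomic profiling in live THP-1 cells with an iodoacetamide desthiobiotin (IA-DTB) probe, comparing probe-labelled peptide intensities in compound-treated cells against DMSO-treated controls.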

Target | probe-labelled cysteine peptide fold change (10 µM) | probe-labelled cysteine peptide fold change (50 µM)
WDR18_Q9BV38_384_TEQLQAVLCSTMEK (UniProt Q9BV38) | 0.0584 | -0.176
WDR26_Q9H7D7_493_VQCLWCLSDGK (UniProt Q9H7D7) | 0.112 | 0.0721
WDHD1_O75717_285_GYAICGLAWHPTCGR (UniProt O75717) | -0.0357 | -0.0182
WDR6_Q9NNW5_813_AEMHCFSIMVTPDPSTPSR (UniProt Q9NNW5) | 0.0198 | -0.241
WDFY3_Q8IZQ1_2094_SQGLSLDAVYHCLNR (UniProt Q8IZQ1) | 0.0537 | 0.108
WDFY4_Q6ZS81_264_AQNLSIIQYLQATDCVR (UniProt Q6ZS81) | 0.133 | -0.00204
WSB1_Q9Y6I7_66_LVPWSQCLQNFLLHGTK (UniProt Q9Y6I7) | -0.191 | -0.241
XPC_Q01831_60_GCSHPGGSADGPAK (UniProt Q01831) | -0.0215 | -0.311
WASHC5_Q12768_21_IVSCGNAIIAELLR (UniProt Q12768) | 0.0148 | 0.243
WDR91_A4D1P6_684_LFAFDSEGNYMLTCSATGGVIYK (UniProt A4D1P6) | 0.0446 | 0.0897
WDR11_Q9BZH6_411_NSSSGVSPLYSPVSFCGIPVGVLQNK (UniProt Q9BZH6) | -0.0944 | -0.0348
WDR77_Q9BQA1_53_CWAGSLWLFK (UniProt Q9BQA1) | 0.0175 | 0.013
WDR1_O75083_382_MTVDESGQLISCSMDDTVR (UniProt O75083) | 0.177 | 0.243
WDR81_Q562E7_76_RLPLGPCPR (UniProt Q562E7) | 0.0121 | 0.253

Exported tab-delimited: part of the list above.
Target	probe-labelled cysteine peptide fold change (10 µM)	probe-labelled cysteine peptide fold change (50 µM)
WDFY3_Q8IZQ1_2094_SQGLSLDAVYHCLNR (UniProt Q8IZQ1)	0.0537	0.108
WDFY4_Q6ZS81_264_AQNLSIIQYLQATDCVR (UniProt Q6ZS81)	0.133	-0.00204
